This test has as its system mice, ADJ-PC-20 plasma cell tumor sc, T/C %. Put plainly: NCI In Vivo Anticancer Drug Screen. Data for tumor model ADJ-PC-20 Plasma Cell (subcutaneous) in unknown mice. The settings on record: T/C endpoint: mean tumor weight, higher T/C = larger tumour. The procedure:
The antitumor activity of compounds was measured in mice bearing transplantable tumors. Survival or tumor size were measured and the results are expressed as the measurement made in the treated group (T) divided by the measurement made in the vehicle treated control group (C). The tumor model used in this assay is ADJ-PC-20 Plasma Cell (subcutaneous) in unknown mice

The list does not hold the whole screen: it covers a few groups of compounds. Not every dose and run of a compound is shown. T/C: endpoint of the treated group in % of that of the vehicle group. Schedule codes are those of the source, read here as Q, the interval in days (D) or hours (H), X, the number of doses. Some T/C values carry the count of animals alive at the toxicity check; where neither a count nor a note follows, no animal had died by that day. Some entries give survivors of the animals treated and no T/C: the source files T/C as zero there, which appears to mark a toxic dose or a test without result, not a measured value. Counts of survivors are from the toxicity check, whose day is not always given; animals may have died later.

As to `OC(CNCCCl)C(O)C(O)C(O)CNCCCl` (stereo unspecified), the T/C (dose: 6.3 mg/kg/injection, schedule: Q01DX010 (ip), vehicle: saline, evaluated on day 21) is 29 % of control [9 of 10 alive]. Also, the survivor count by setting is: (dose: 12.5 mg/kg/injection, schedule: Q01DX010 (ip), vehicle: saline) 5 of 10; (dose: 25.0 mg/kg/injection, schedule: Q01DX010 (ip), vehicle: saline) 0 of 10; (dose: 50.0 mg/kg/injection, schedule: Q01DX010 (ip), vehicle: saline) 0 of 10.
Turning to `Cc1[nH]c(=O)[nH]c(=O)c1N(CCCl)CCCl`, the T/C is 100 % of control (dose: 0.25 mg/kg/injection, schedule: Q01DX010 (ip), vehicle: carboxymethylcellulose (CMC), evaluated on day 21); 72 % of control (dose: 0.5 mg/kg/injection, schedule: Q01DX010 (ip), vehicle: carboxymethylcellulose (CMC), evaluated on day 21); 56 % of control (dose: 1.0 mg/kg/injection, schedule: Q01DX010 (ip), vehicle: carboxymethylcellulose (CMC), evaluated on day 21); 43 % of control (dose: 1.0 mg/kg/injection, schedule: Q01DX011 (ip), vehicle: carboxymethylcellulose (CMC), evaluated on day 21); 5 % of control (dose: 2.0 mg/kg/injection, schedule: Q01DX010 (ip), vehicle: carboxymethylcellulose (CMC), evaluated on day 21). Further, the survivor count is, setting by setting: (dose: 4.0 mg/kg/injection, schedule: Q01DX011 (ip), vehicle: carboxymethylcellulose (CMC)) 0 of 10; (dose: 8.0 mg/kg/injection, schedule: Q01DX011 (ip), vehicle: carboxymethylcellulose (CMC)) 0 of 10.
In the case of `CN(N=O)C(=N)N[N+](=O)[O-]`, the T/C runs as follows: (dose: 3.75 mg/kg/injection, schedule: Q01DX010 (ip), vehicle: carboxymethylcellulose (CMC), evaluated on day 21) 63 % of control; (dose: 15.0 mg/kg/injection, schedule: Q01DX010 (ip), vehicle: carboxymethylcellulose (CMC), evaluated on day 21) 69 % of control. Further, the survivor count is 6 of 10 (dose: 7.5 mg/kg/injection, schedule: Q01DX010 (ip), vehicle: carboxymethylcellulose (CMC)) and 1 of 10 (dose: 30.0 mg/kg/injection, schedule: Q01DX010 (ip), vehicle: carboxymethylcellulose (CMC)).
Turning to `CC[C@H](C)[C@@H]1NC(=O)/C(=C(\C)O)C1=O`, the T/C runs as follows: (dose: 6.3 mg/kg/injection, schedule: Q01DX010 (ip), vehicle: water, evaluated on day 21) 84 % of control [9 of 10 alive]; (dose: 12.5 mg/kg/injection, schedule: Q01DX010 (ip), vehicle: water, evaluated on day 21) 94 % of control; (dose: 12.5 mg/kg/injection, schedule: Q01DX011 (ip), vehicle: water, evaluated on day 21) 69 % of control. Besides, the survivor count is on record as 5 of 10 (dose: 25.0 mg/kg/injection, schedule: Q01DX010 (ip), vehicle: water); 6 of 10 (dose: 25.0 mg/kg/injection, schedule: Q01DX011 (ip), vehicle: water); 1 of 10 (dose: 50.0 mg/kg/injection, schedule: Q01DX011 (ip), vehicle: water); 0 of 10 (dose: 100.0 mg/kg/injection, schedule: Q01DX011 (ip), vehicle: water).
For `COC1OC(CNCCCl)C2OC(C)(C)OC12` (stereo unspecified), the T/C runs as follows: (dose: 65.0 mg/kg/injection, schedule: Q01DX010 (ip), vehicle: saline, evaluated on day 18) 45 % of control; (dose: 108.0 mg/kg/injection, schedule: Q01DX010 (ip), vehicle: saline, evaluated on day 18) 77 % of control; (dose: 180.0 mg/kg/injection, schedule: Q01DX010 (ip), vehicle: saline, evaluated on day 18) 25 % of control [9 of 10 alive]. Moreover, for the setting “dose: 500.0 mg/kg/injection, schedule: Q01DX010 (ip), vehicle: saline”, the survivor count is listed as 0 of 10.

(Values after PubChem BioAssay AID332 (DTP/NCI, 2004).)
